From article PMC3499583
No constants are given. Whether binding was seen depends on the method and setting.

Biological target: T1, Semaphorin-7A Sema domain, biotinylated bait (human) (UniProt O75326)
T1 sequence (chain, biotin on the C-terminal biotinylatable peptide (enzymatic, BirA)): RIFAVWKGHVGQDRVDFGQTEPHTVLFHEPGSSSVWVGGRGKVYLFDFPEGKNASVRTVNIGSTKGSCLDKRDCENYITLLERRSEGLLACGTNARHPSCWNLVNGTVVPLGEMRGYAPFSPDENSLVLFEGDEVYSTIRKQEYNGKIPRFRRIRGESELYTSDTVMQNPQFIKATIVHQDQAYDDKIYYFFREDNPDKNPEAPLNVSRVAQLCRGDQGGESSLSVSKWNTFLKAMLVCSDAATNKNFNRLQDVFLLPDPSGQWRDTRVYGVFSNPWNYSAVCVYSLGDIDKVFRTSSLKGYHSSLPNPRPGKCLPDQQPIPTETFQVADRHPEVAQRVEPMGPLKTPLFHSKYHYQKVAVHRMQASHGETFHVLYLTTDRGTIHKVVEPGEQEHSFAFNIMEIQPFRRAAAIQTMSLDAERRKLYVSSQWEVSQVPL
Assay: AVEXIS (avidity-based extracellular interaction screen); biotinylated baits (dialysed against HBS) immobilised in streptavidin-coated 96-well plates; normalised pentameric beta-lactamase preys added for 1 hour at room temperature, washed in HBS plus 0.1% Tween-20; nitrocefin, absorbance at 485 nm; only the target purified

With “MTRAP ectodomain, pentameric beta-lactamase-tagged prey (P. falciparum) (domain or fragment)” the binding was “no binding”.
